PubChem BioAssay AID540253 (National Center for Advancing Translational Sciences (NCATS), 2011)
What follows is the remainder of the data, with few or none of the hits. Records with an inconclusive call do not appear. Calls of active or inactive are those of the source. Calls follow the shape of the full dose curve.

By UniProt entry, the sequences of proteins in these tests, tags left out.
UniProt O95149, whole entry, looked up: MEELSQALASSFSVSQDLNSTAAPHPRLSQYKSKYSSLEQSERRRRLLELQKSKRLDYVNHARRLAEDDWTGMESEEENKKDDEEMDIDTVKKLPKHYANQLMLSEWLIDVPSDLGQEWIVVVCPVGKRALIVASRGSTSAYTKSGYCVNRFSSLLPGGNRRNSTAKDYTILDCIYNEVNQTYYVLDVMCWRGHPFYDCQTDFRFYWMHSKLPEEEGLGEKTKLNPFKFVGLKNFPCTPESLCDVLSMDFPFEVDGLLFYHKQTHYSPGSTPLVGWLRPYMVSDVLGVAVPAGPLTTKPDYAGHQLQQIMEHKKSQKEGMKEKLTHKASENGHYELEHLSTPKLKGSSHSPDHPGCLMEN
UniProt Q14974, whole entry, looked up: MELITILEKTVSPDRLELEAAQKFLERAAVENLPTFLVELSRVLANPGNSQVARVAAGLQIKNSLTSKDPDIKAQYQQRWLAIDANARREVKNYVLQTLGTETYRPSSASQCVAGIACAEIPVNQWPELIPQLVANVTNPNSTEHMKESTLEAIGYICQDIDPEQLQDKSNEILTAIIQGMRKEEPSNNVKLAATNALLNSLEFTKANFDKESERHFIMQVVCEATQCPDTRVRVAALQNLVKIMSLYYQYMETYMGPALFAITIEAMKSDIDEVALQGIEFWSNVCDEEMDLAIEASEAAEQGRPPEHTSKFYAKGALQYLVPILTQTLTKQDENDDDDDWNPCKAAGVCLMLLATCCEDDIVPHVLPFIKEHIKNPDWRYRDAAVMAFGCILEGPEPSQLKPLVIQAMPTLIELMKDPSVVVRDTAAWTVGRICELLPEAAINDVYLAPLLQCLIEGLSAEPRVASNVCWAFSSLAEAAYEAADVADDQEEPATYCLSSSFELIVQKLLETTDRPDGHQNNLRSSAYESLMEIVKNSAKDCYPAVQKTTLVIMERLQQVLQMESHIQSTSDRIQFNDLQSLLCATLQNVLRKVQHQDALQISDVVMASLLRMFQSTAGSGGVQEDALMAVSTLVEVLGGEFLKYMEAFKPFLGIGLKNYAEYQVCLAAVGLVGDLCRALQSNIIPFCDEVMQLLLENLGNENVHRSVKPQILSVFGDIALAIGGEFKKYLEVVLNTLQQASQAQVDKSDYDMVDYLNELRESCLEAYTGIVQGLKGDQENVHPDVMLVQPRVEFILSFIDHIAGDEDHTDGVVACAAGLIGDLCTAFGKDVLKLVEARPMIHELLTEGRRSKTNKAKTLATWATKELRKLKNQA

Biological target: Snurportin-1 (Homo sapiens) + GTP-binding nuclear protein Ran (Homo sapiens) + Importin subunit beta-1 (Homo sapiens) (UniProt O95149+P62826+Q14974)
Assay: qHTS Assay for Inhibitors of RanGTP induced Rango (Ran-regulated importin-beta cargo) - Importin beta complex dissociation; also: % of control where 0% means no effect; nearly all actives have a fitted effect of over 45% in size
Settings: Biochemical FRET Rango-importin beta; at 46.1 µM (top of the series)
Description: NIH Molecular Libraries Probe Production Centers Network [MLPCN] NIH Chemical Genomics Center [NCGC] MLPCN Grant: R03 MH090808-01A1 Assay Submitter (PI): Petr Kalab NCGC Assay Overview: The small GTPase Ran regulates transport of macromolecules between the nucleus and the cytoplasm (nuclear transport) and has important functions in mitotic spindle assembly, nuclear envelope (NE) formation and nuclear pore complex (NPC) assembly. RanGTP gradient is thought to promote spindle assembly by providing a spatial clue to microtubule nucleation and Aurora A activation. Because the localized release and binding of importin alpha cargos relays this spatial clue to SAFs, inhibitors of the Rango - importin beta complex can then be used in further understanding their role in cell cycle specifically in mitosis progression. […] The assay used a fluorescence resonance energy transfer (FRET) Rango biosensor that contains the IBB of human snurportin 1 flanked by yellow fluorescent protein (EYFP) at the amino terminus and cerulean CFP10 at the carboxy terminus. […] FRET readings were obtained at two time points. FRET reading prior to importin beta addition (pre-read) were used flag potential compound interference; FRET reading after importin beta addition (post-read) were used to identify inhibitors. […]

Structure (SMILES) | activity change, negative = inhibition
O=c1ccc2ccc(OCc3ccccc3)cc2o1 | inactive: -11.3%
